# Reference: publication PMC7353009, “Identification of Substrates of Cytoplasmic Peptidyl-Prolyl Cis/Trans Isomerases and Their Collective Essentiality in Escherichia Coli” (International Journal of Molecular Sciences, 2020)
# No constants are given. Whether binding was seen depends on the method and setting. Binding seen in cells or lysates may run through a third protein. Here binding means that the protein was enriched with, or labelled near, the bait; the list need not be complete. Tags and fused reporters may be left off the sequences shown.
# T1: His6-tagged PpiB (wild type) (E. coli) (UniProt P23869)
# T1 sequence: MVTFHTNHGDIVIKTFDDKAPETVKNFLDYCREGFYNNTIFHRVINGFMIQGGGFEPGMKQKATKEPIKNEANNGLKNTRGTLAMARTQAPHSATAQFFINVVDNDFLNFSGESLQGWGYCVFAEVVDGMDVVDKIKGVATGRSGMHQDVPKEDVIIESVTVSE
# T2: Hexa-His-tagged FklB (wild type) (E. coli) (UniProt P0A9L3)
# T2 sequence: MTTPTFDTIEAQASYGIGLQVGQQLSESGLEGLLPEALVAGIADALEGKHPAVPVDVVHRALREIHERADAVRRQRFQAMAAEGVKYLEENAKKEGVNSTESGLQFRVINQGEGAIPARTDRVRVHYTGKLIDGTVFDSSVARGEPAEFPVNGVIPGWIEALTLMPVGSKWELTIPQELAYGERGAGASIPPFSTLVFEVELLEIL
# Target: T1, His6-tagged PpiB (wild type) (E. coli)
# Assay: affinity purification with mass spectrometry; His6-tagged PPI induced with 0.1 mM IPTG in an E. coli T7 express derivative lacking all six PPIs (SR21984); soluble lysate on Ni-NTA beads, 50 mM NaH2PO4, 300 mM NaCl, eluted with a linear imidazole gradient (50-500 mM); co-eluting proteins resolved by SDS-PAGE (for FkpB also 2D gels) and identified by MALDI-TOF
row,binding,Binder
1,binds,"CytR (protein, UniProt P0ACN7 1-341) MKAKKQETAATMKDVALKAKVSTATVSRALMNPDKVSQATRNRVEKAAREVGYLPQPMGRNVKRNESRTILVIVPDICDPFFSEIIRGIEVTAANHGYLVLIGDCAHQNQQEKTFIDLIITKQIDGMLLLGSRLPFDASIEEQRNLPPMVMANEFAPELELPTVHIDNLTAAFDAVNYLYEQGHKRIGCIAGPEEMPLCHYRLQGYVQALRRCGIMVDPQYIARGDFTFEAGSKAMQQLLDLPQPPTAVFCHSDVMALGALSQAKRQGLKVPEDLSIIGFDNIDLTQFCDPPLTTIAQPRYEIGREAMLLLLDQMQGQHVGSGSRLMDCELIIRGSTRALP"
2,binds,"SthA (protein, UniProt P27306 1-466) MPHSYDYDAIVIGSGPGGEGAAMGLVKQGARVAVIERYQNVGGGCTHWGTIPSKALRHAVSRIIEFNQNPLYSDHSRLLRSSFADILNHADNVINQQTRMRQGFYERNHCEILQGNARFVDEHTLALDCPDGSVETLTAEKFVIACGSRPYHPTDVDFTHPRIYDSDSILSMHHEPRHVLIYGAGVIGCEYASIFRGMDVKVDLINTRDRLLAFLDQEMSDSLSYHFWNSGVVIRHNEEYEKIEGCDDGVIMHLKSGKKLKADCLLYANGRTGNTDSLALQNIGLETDSRGQLKVNSMYQTAQPHVYAVGDVIGYPSLASAAYDQGRIAAQALVKGEATAHLIEDIPTGIYTIPEISSVGKTEQQLTAMKVPYEVGRAQFKHLARAQIVGMNVGTLKILFHRETKEILGIHCFGERAAEIIHIGQAIMEQKGGGNTIEYFVNTTFNYPTMAEAYRVAALNGLNRLF"
3,binds,"NtrC (protein, UniProt P0AFB8 1-469) MQRGIVWVVDDDSSIRWVLERALAGAGLTCTTFENGAEVLEALASKTPDVLLSDIRMPGMDGLALLKQIKQRHPMLPVIIMTAHSDLDAAVSAYQQGAFDYLPKPFDIDEAVALVERAISHYQEQQQPRNVQLNGPTTDIIGEAPAMQDVFRIIGRLSRSSISVLINGESGTGKELVAHALHRHSPRAKAPFIALNMAAIPKDLIESELFGHEKGAFTGANTIRQGRFEQADGGTLFLDEIGDMPLDVQTRLLRVLADGQFYRVGGYAPVKVDVRIIAATHQNLEQRVQEGKFREDLFHRLNVIRVHLPPLRERREDIPRLARHFLQVAARELGVEAKLLHPETEAALTRLAWPGNVRQLENTCRWLTVMAAGQEVLIQDLPGELFESTVAESTSQMQPDSWATLLAQWADRALRSGHQNLLSEAQPELERTLLTTALRHTQGHKQEAARLLGWGRNTLTRKLKELGME"
4,binds,"AccA (protein, UniProt P0ABD5 1-319) MSLNFLDFEQPIAELEAKIDSLTAVSRQDEKLDINIDEEVHRLREKSVELTRKIFADLGAWQIAQLARHPQRPYTLDYVRLAFDEFDELAGDRAYADDKAIVGGIARLDGRPVMIIGHQKGRETKEKIRRNFGMPAPEGYRKALRLMQMAERFKMPIITFIDTPGAYPGVGAEERGQSEAIARNLREMSRLGVPVVCTVIGEGGSGGALAIGVGDKVNMLQYSTYSVISPEGCASILWKSADKAPLAAEAMGIIAPRLKELKLIDSIIPEPLGGAHRNPEAMAASLKAQLLADLADLDVLSTEDLKNRRYQRLMSYGYA"
5,binds,"RNA helicase DeaD (protein, UniProt P0A9P6 1-629) MAEFETTFADLGLKAPILEALNDLGYEKPSPIQAECIPHLLNGRDVLGMAQTGSGKTAAFSLPLLQNLDPELKAPQILVLAPTRELAVQVAEAMTDFSKHMRGVNVVALYGGQRYDVQLRALRQGPQIVVGTPGRLLDHLKRGTLDLSKLSGLVLDEADEMLRMGFIEDVETIMAQIPEGHQTALFSATMPEAIRRITRRFMKEPQEVRIQSSVTTRPDISQSYWTVWGMRKNEALVRFLEAEDFDAAIIFVRTKNATLEVAEALERNGYNSAALNGDMNQALREQTLERLKDGRLDILIATDVAARGLDVERISLVVNYDIPMDSESYVHRIGRTGRAGRAGRALLFVENRERRLLRNIERTMKLTIPEVELPNAELLGKRRLEKFAAKVQQQLESSDLDQYRALLSKIQPTAEGEELDLETLAAALLKMAQGERTLIVPPDAPMRPKREFRDRDDRGPRDRNDRGPRGDREDRPRRERRDVGDMQLYRIEVGRDDGVEVRHIVGAIANEGDISSRYIGNIKLFASHSTIELPKGMPGEVLQHFTRTRILNKPMNMQLLGDAQPHTGGERRGGGRGFGGERREGGRNFSGERREGGRGDGRRFSGERREGRAPRRDDSTGRRRFGGDA"
6,binds,"UspG (protein, UniProt P39177 1-142) MYKTIIMPVDVFEMELSDKAVRHAEFLAQDDGVIHLLHVLPGSASLSLHRFAADVRRFEEHLQHEAQERLQTMVSHFTIDPSRIKQHVRFGSVRDEVNELAEELGADVVVIGSRNPSISTHLLGSNASSVIRHANLPVLVVR"
7,binds,"MiaB (protein, UniProt P0AEI1 1-474) MTKKLHIKTWGCQMNEYDSSKMADLLDATHGYQLTDVAEEADVLLLNTCSIREKAQEKVFHQLGRWKLLKEKNPDLIIGVGGCVASQEGEHIRQRAHYVDIIFGPQTLHRLPEMINSVRGDRSPVVDISFPEIEKFDRLPEPRAEGPTAFVSIMEGCNKYCTYCVVPYTRGEEVSRPSDDILFEIAQLAAQGVREVNLLGQNVNAWRGENYDGTTGSFADLLRLVAAIDGIDRIRFTTSHPIEFTDDIIEVYRDTPELVSFLHLPVQSGSDRILNLMGRTHTALEYKAIIRKLRAARPDIQISSDFIVGFPGETTEDFEKTMKLIADVNFDMSYSFIFSARPGTPAADMVDDVPEEEKKQRLYILQERINQQAMAWSRRMLGTTQRILVEGTSRKSIMELSGRTENNRVVNFEGTPDMIGKFVDVEITDVYPNSLRGKVVRTEDEMGLRVAETPESVIARTRKENDLGVGYYQP"

# Target: T2, Hexa-His-tagged FklB (wild type) (E. coli)
# Assay: as above
row,binding,Binder
1,binds,"RlmG (protein, UniProt P42596 1-378) MSHLDNGFRSLTLQRFPATDDVNPLQAWEAADEYLLQQLDDTEIRGPVLILNDAFGALSCALAEHKPYSIGDSYISELATRENLRLNGIDESSVKFLDSTADYPQQPGVVLIKVPKTLALLEQQLRALRKVVTSDTRIIAGAKARDIHTSTLELFEKVLGPTTTTLAWKKARLINCTFNEPQLADAPQTVSWKLEGTDWTIHNHANVFSRTGLDIGARFFMQHLPENLEGEIVDLGCGNGVIGLTLLDKNPQAKVVFVDESPMAVASSRLNVETNMPEALDRCEFMINNALSGVEPFRFNAVLCNPPFHQQHALTDNVAWEMFHHARRCLKINGELYIVANRHLDYFHKLKKIFGNCTTIATNNKFVVLKAVKLGRRR"
2,binds,"ompF/C transcriptional regulator OmpR (protein, UniProt P0AA16 1-239) MQENYKILVVDDDMRLRALLERYLTEQGFQVRSVANAEQMDRLLTRESFHLMVLDLMLPGEDGLSICRRLRSQSNPMPIIMVTAKGEEVDRIVGLEIGADDYIPKPFNPRELLARIRAVLRRQANELPGAPSQEEAVIAFGKFKLNLGTREMFREDEPMPLTSGEFAVLKALVSHPREPLSRDKLMNLARGREYSAMERSIDVQISRLRRMVEEDPAHPRYIQTVWGLGYVFVPDGSKA"
3,binds,"plasmid copy number regulator PcnB (protein, UniProt P0ABF1 11-465) KVLSREESEAEQAVARPQVTVIPREQHAISRKDISENALKVMYRLNKAGYEAWLVGGGVRDLLLGKKPKDFDVTTNATPEQVRKLFRNCRLVGRRFRLAHVMFGPEIIEVATFRGHHEGNVSDRTTSQRGQNGMLLRDNIFGSIEEDAQRRDFTINSLYYSVADFTVRDYVGGMKDLKDGVIRLIGNPETRYREDPVRMLRAVRFAAKLGMRISPETAEPIPRLATLLNDIPPARLFEESLKLLQAGYGYETYKLLCEYHLFQPLFPTITRYFTENGDSPMERIIEQVLKNTDTRIHNDMRVNPAFLFAAMFWYPLLETAQKIAQESGLTYHDAFALAMNDVLDEACRSLAIPKRLTTLTRDIWQLQLRMSRRQGKRAWKLLEHPKFRAAYDLLALRAEVERNAELQRLVKWWGEFQVSAPPDQKGMLNELDEEPSPRRRTRRPRKRAPRREGTA"
